From PubChem BioAssay AID1487 (National Center for Advancing Translational Sciences (NCATS), 2009)
This is one part of the list. The main result of the screen is listed elsewhere. These columns were measured beside it and carry no call. The list favours compounds with an active or inconclusive main result. Words in brackets tell the shape of the fitted curve; partial curves, single points and poor fits give uncertain potencies.

Assay: qHTS Assay for Modulators of Lamin A Splicing
Details: HeLa LMNA splicing GFP/RFP minigene ratio, 48 h
How it was run: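 Read-out is the ratio of GFP to DsRed2 object intensity, acquired by 488 nm laser-scanning cytometry on HeLa lamin A-EGFP minigene reporter cells. Compound incubation 48 hrs at 37 °C in Opti-MEM with 2% FBS; DMSO 0.5% final.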

[1] = measured here: RFP viability control channel
[2] = measured here: GFP splicing reporter channel

With O=c1c2ccccc2nnn1CSc1ccc2ccccc2n1 the AC50 [1] was 31.6 µM [rising, single point].

In the case of Cc1ccccc1OC1C(=O)N(Cc2ccc3c(c2)OCO3)C1c1sccc1C (configuration not stated), the AC50 [2] is reported as 35.5 µM [falling, single point] and the AC50 [1] is reported as 35.5 µM [falling, partial curve].

In the case of O=C(CS(=O)(=O)c1ccc(Cl)cc1)Nc1nc2ccc(Br)cc2s1, the AC50 [2] is reported as 35.5 µM [falling, single point] and the AC50 [1] is reported as 35.5 µM [falling, single point].

With Cc1nc(NC(=O)c2ccco2)sc1-c1csc(Nc2ccc(Cl)cc2Cl)n1 the AC50 [1] was 5.01 µM [falling, partial curve].

With Cc1ccc(-n2ncc3c(N4CCN(Cc5ccccc5)CC4)ncnc32)cc1C the AC50 [2] was 10 µM [falling, partial curve, poor fit] and the AC50 [1] was 1.58 µM [falling, partial curve, poor fit].

For O=C(N/N=C/c1cc([N+](=O)[O-])ccc1O)C1C2CCCCC21 (configuration not stated), the AC50 [2] was 8.91 µM [falling, partial curve, poor fit] and the AC50 [1] was 11.2 µM [falling, partial curve, poor fit].

With CCCCCOC(=O)C1=C(C)NC(=O)NC1c1ccccc1OCC (configuration not stated) the AC50 [2] was 20 µM [rising, partial curve, poor fit] and the AC50 [1] was 31.6 µM [rising, single point].

In the case of CCOCCc1nn2c(=O)cc(COC(=O)c3ccccc3Br)nc2s1, the AC50 [1] is reported as 3.55 µM [falling, partial curve, poor fit].

With CC(C)(C)N(NC(=O)OCc1ccccc1)C(=O)c1ccccc1Cl the AC50 [2] was 3.55 µM [rising, single point] and the AC50 [1] was 5.62 µM [rising, single point].

In the case of Cc1ccc(CNC(=O)C(=O)NCC(c2cccs2)S(=O)(=O)c2ccccc2)cc1 (configuration not stated), the AC50 [2] is reported as 5.62 µM [rising, single point].

With N/C(=N\OC(=O)c1cc(Cl)ccc1Cl)c1ccccn1 the AC50 [1] was 1.41 µM [rising, full curve, poor fit].

For O=C(Nc1ccccn1)NC12CC3CC(CC(C3)C1)C2, the AC50 [2] was 5.62 µM [falling, single point] and the AC50 [1] was 1.78 µM [rising, partial curve].

With Cc1ccc(S(=O)(=O)c2c(C)nn(C(C)(C)C)c2OC(=O)c2ccc(Br)o2)cc1 the AC50 [2] was 7.08 µM [falling, partial curve] and the AC50 [1] was 7.94 µM [falling, partial curve].

For O=C(Nc1ccc(N2CCCCC2)cc1)c1ccc2c(c1)OCCO2, the AC50 [2] was 31.6 µM [rising, single point] and the AC50 [1] was 17.8 µM [rising, single point].

With COC(=O)c1cc(C(=O)c2cc(Cl)ccc2O)coc1=N the AC50 [2] was 0.0708 µM [rising, full curve, poor fit] and the AC50 [1] was 0.282 µM [rising, full curve, poor fit].

In the case of O=C(CCCN1C(=O)c2ccccc2C1=O)NCC1CCCO1 (configuration not stated), the AC50 [1] is reported as 5.62 µM [falling, single point].

With COCCNC(=S)NCc1cccs1 the AC50 [1] was 0.0316 µM [falling, full curve, poor fit].

In the case of COc1cc(OC)cc(C(=O)NC(=S)NNC(=O)Cc2cccs2)c1, the AC50 [1] is reported as 12.6 µM [rising, partial curve].

In the case of Cc1ccc(C(=O)Nc2cccc(C(=O)NCc3ccccc3)c2)cc1, the AC50 [1] is reported as 6.31 µM [rising, single point].

For COC(=O)c1c(-c2ccccc2)csc1N, the AC50 [2] was 7.08 µM [rising, partial curve] and the AC50 [1] was 14.1 µM [rising, partial curve].

In the case of Clc1ccc(Cl)c(OCCCCNCc2ccccc2)c1, the AC50 [2] is reported as 10 µM [rising, partial curve].

For CCOc1ccc(C(C)NC(=O)c2ccccc2F)cc1 (configuration not stated), the AC50 [2] was 10 µM [rising, partial curve, poor fit] and the AC50 [1] was 10 µM [rising, partial curve, poor fit].

In the case of O=C(COc1ccc(F)cc1)NCc1ccc2c(c1)CCN2C(=O)c1ccc(F)cc1, the AC50 [2] is reported as 6.31 µM [rising, partial curve] and the AC50 [1] is reported as 10 µM [rising, partial curve, poor fit].

With Cc1cccc(OCC(=O)Nc2ccc(S(=O)(=O)N(Cc3ccccc3)c3ccccc3)cc2)c1 the AC50 [1] was 11.2 µM [rising, partial curve].

With Cc1cc(-n2c(C)nc3ccccc3c2=O)ccc1NC(=O)c1cccc([N+](=O)[O-])c1C the AC50 [1] was 5.62 µM [rising, single point].

For O=C(NCc1ccccc1)N1CCN(c2ccc(Cl)c(Cl)c2)CC1, the AC50 [2] was 12.6 µM [rising, partial curve, poor fit] and the AC50 [1] was 14.1 µM [rising, partial curve].

In the case of C=CCC(Nc1ccccc1)C12C=CC(O1)C(C(=O)OC)=C2C(=O)OC (configuration not stated), the AC50 [1] is reported as 7.08 µM [rising, full curve, poor fit].

With COc1cccc(Cn2c(=O)c(-c3ccccc3)nc3cnc(OC)nc32)c1 the AC50 [2] was 17.8 µM [falling, single point] and the AC50 [1] was 25.1 µM [falling, single point].

With O=C(Cn1cnc([N+](=O)[O-])c1)Nc1cc(Oc2ccc(Cl)cc2Cl)cc([N+](=O)[O-])c1 the AC50 [2] was 22.4 µM [falling, single point] and the AC50 [1] was 14.1 µM [falling, partial curve].

With CCCN(CCC)C(=O)CSc1nc2ccccc2c(=O)n1C1CCCC1 the AC50 [1] was 35.5 µM [rising, single point].

With Cc1cc(C)c2cc(CN(CCCN(C)C)C(=S)NCc3ccccc3)c(=O)[nH]c2c1 the AC50 [1] was 0.126 µM [falling, partial curve, poor fit].

For O=C(c1ccc(CSc2ccc(Cl)cc2)cc1)N1CCCC1, the AC50 [2] was 0.0447 µM [rising, full curve] and the AC50 [1] was 7.08 µM [rising, full curve].

With O=C(CSc1nc2ccccc2n1Cc1cccc(C(F)(F)F)c1)NCc1ccccc1 the AC50 [1] was 14.1 µM [rising, single point].

With CC1CCC(C(C)C)C(OC(=O)COC(=O)c2ccc(=O)[nH]c2)C1 (configuration not stated) the AC50 [2] was 11.2 µM [rising, partial curve].

With O=C(c1ccco1)N1CCN(C(=O)c2cc3c(s2)-c2ccccc2OC3)CC1 the AC50 [1] was 25.1 µM [rising, partial curve, poor fit].

In the case of CN(/C(=N/S(=O)(=O)c1cccs1)c1ccccc1)c1ccc(O)cc1, the AC50 [2] is reported as 0.0398 µM [falling, full curve, poor fit] and the AC50 [1] is reported as 0.0398 µM [falling, full curve, poor fit].

With COc1ccc(N2CCN(CC(O)COCCOc3ccc(Br)cc3)CC2)cc1 (configuration not stated) the AC50 [2] was 11.2 µM [rising, partial curve] and the AC50 [1] was 14.1 µM [rising, partial curve].

With BrC(=C\c1ccccc1)/C=N/Nc1nc(N2CCOCC2)nc(N2CCOCC2)n1 the AC50 [1] was 22.4 µM [rising, single point].

For Cc1ccc(S(=O)(=O)C(CNC(=O)C(=O)NCCc2ccc(F)cc2)c2cccs2)cc1 (configuration not stated), the AC50 [2] was 1.26 µM [falling, partial curve, poor fit] and the AC50 [1] was 2.51 µM [falling, partial curve, poor fit].

In the case of Cc1ccc(S(=O)(=O)N(C)C)cc1NC(=O)COC(=O)c1c(C)noc1C, the AC50 [1] is reported as 22.4 µM [rising, single point].

In the case of COCCn1c(=S)[nH]c2cc(C(=O)N3CCN(c4ccc(F)cc4)CC3)ccc2c1=O, the AC50 [2] is reported as 0.708 µM [falling, partial curve, poor fit].

With COC(=O)Nc1ccc(S(=O)(=O)N2CCN(c3ccc(F)cc3)CC2)cc1 the AC50 [2] was 11.2 µM [rising, single point] and the AC50 [1] was 20 µM [rising, single point].

In the case of CCc1nnc(NC(=O)c2cccc(S(=O)(=O)N(C)c3ccc(OC)cc3)c2)s1, the AC50 [1] is reported as 0.0251 µM [rising, full curve, poor fit].

For COC(=O)c1ccc(S(=O)(=O)NCCSc2nnc3c4ccccc4n(C)c3n2)cc1, the AC50 [2] was 4.47 µM [rising, full curve] and the AC50 [1] was 20 µM [rising, single point].

For O=C(Cc1ccccc1)c1c[nH]c(C(=O)NCc2ccncc2)c1, the AC50 [2] was 11.2 µM [rising, partial curve, poor fit] and the AC50 [1] was 0.00398 µM [rising, full curve, poor fit].

For COc1cc2c(cc1OC)CN(c1ccc([N+](=O)[O-])cc1Cl)CC2, the AC50 [2] was 14.1 µM [rising, partial curve] and the AC50 [1] was 31.6 µM [rising, single point].

With CCCNC(=O)NC(=O)CSc1nc(C)cs1 the AC50 [2] was 0.1 µM [falling, full curve, poor fit].

In the case of CCSc1nnc(-c2cccc(S(=O)(=O)N(CC)CC)c2)n1Cc1ccccc1, the AC50 [1] is reported as 28.2 µM [rising, single point].

In the case of CCC(O)(CC)C(=O)NN(C(=O)Nc1csc2c1CCCC2)c1ccccc1, the AC50 [1] is reported as 35.5 µM [rising, single point].

In the case of CCCCN(CCCC)S(=O)(=O)c1ccc(NC(=O)c2ccc([N+](=O)[O-])cc2Cl)cc1, the AC50 [1] is reported as 35.5 µM [rising, single point].

For Cc1ccc(OCc2cn3cccnc3n2)cc1, the AC50 [2] was 10 µM [rising, partial curve].

In the case of CCOC(=O)c1c(S(=O)(=O)N2CCN(c3cc(Cl)ccc3C)CC2)c(C)n(C)c1C, the AC50 [2] is reported as 1.41 µM [falling, full curve, poor fit] and the AC50 [1] is reported as 0.447 µM [falling, full curve, poor fit].
